Measured values reported in patent publication US20210284691A1, “CBX8 CHROMDOMAIN INHIBITORS AND THE USES THEREOF” (Purdue Research Foundation, priority 2019, published 2021).
For at least one compound, name, drawing or mass did not settle the structure. Square brackets hold non-standard residues; d marks the D form. Peptide text beside a SMILES is read from it. * marks the point of attachment. X1 = O=C(NCCCCn1cc(CN*)nn1)c1ccc(-c2c3ccc(=O)cc-3oc3cc(O)ccc23)cc1; Isoxazole3carbonyl(5-Me) = Cc1cc(C(=O)*)no1; Phg(2-OMe) = COc1ccccc1[C@H](N)C(=O)O; Lys(Et2) = CCN(CC)CCCC[C@H](N)C(=O)O; Gly(cPent) = N[C@H](C(=O)O)C1CCCC1

Target: T1, CBX4 ChD (Homo sapiens, UniProt O00257)
T1 construct: CBX chromodomain constructs; host or cells: E. coli BL21 CodonPlus RIL
T1 sequence (O00257 11-69 limits assumed): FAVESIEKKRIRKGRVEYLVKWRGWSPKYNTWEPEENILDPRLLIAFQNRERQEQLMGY
Test: Direct fluorescence polarization (FP) binding assay
Settings: Table 3, fluorescein-conjugated ligands, n = 4 ± s.d., read-out: CBX Protein Chromodomain Kd (μM) CBX4

CC[C@H](C)[C@H](NC(=O)[C@@H](NC(=O)[C@@H](NC(=O)c1cc(C)on1)c1ccccc1OC)C1CCCC1)C(=O)N[C@@H](CCCCN(CC)CC)C(=O)N[C@@H](CO)C(=O)NCc1cn(CCCCNC(=O)c2ccc(-c3c4ccc(=O)cc-4oc4cc(O)ccc34)cc2)nn1 [SW3_45A-FL] ({Isoxazole3carbonyl(5-Me)}-[Phg(2-OMe)][Gly(cPent)]I[Lys(Et2)]S-X1)
Kd: > 20 µM
